Experimental data from US7067619.
No constants are given. Whether binding was seen depends on the method and setting. Some binding calls cover weakened binding; strength is not graded here.

Sequences of proteins named here, by UniProt entry; tags and fusion partners are left off. A change or cut given only in a name is not applied to a line headed by its entry.
UniProt P08514: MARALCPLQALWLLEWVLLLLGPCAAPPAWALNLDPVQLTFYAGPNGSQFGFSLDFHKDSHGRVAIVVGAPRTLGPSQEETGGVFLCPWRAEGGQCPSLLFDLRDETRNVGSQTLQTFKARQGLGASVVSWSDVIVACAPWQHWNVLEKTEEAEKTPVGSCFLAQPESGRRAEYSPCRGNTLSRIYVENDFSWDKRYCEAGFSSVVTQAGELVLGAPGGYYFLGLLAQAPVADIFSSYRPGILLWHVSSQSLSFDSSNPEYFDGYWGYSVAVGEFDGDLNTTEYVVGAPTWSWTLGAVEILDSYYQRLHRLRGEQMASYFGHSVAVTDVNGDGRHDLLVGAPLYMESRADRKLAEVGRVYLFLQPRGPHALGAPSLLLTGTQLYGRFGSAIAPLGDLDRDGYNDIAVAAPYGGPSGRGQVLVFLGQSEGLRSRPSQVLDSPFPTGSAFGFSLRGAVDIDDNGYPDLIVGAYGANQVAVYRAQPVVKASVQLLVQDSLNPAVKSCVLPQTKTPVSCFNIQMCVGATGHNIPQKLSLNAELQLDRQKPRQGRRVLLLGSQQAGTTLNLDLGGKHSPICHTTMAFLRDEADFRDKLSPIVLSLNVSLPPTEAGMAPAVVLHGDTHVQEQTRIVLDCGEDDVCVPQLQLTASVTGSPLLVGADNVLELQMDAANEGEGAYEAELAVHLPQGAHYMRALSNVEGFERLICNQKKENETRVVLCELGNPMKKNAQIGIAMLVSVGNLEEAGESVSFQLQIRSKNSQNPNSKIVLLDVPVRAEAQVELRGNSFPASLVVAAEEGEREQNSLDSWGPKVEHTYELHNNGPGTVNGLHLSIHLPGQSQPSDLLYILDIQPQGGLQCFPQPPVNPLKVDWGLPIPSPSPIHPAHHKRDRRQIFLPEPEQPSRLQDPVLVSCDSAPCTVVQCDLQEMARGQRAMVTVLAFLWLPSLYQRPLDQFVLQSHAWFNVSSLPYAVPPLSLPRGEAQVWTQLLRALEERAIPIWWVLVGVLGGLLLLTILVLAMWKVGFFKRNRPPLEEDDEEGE

Target: αIIbβ3 integrin isolated from outdated platelets (UniProt P08514)
Experiment: phage panning on coated integrin

| Binder | binding |
| --- | --- |
| CYRRDVPC [CYRRDVPC phage] | binds |
| CKRRDYPC [CKRRDYPC phage] | binds |
| CGRGDQLC [CGRGDQLC phage] | binds |
| CRRGDFGGC | binds |
| CGRGDGDC [CGRGDGDC phage] | binds |
| CGARGDSRC | binds |
| CFSRGDFPC | binds |
| CMSRADRPC | binds |
| CPLRRDWIC | binds |
| CHSTRDELC | binds |
| CTRTDGWC [CTRTDGWC phage] | binds |
| CSGRHDDYC | binds |
| CKRGDWIRC | binds |
| CVVRDMPC [CVVRDMPC phage] | binds |
| CWARRDMPC | binds |
| CRGDNYWC [CRGDNYWC phage] | binds |
| CGRLDVPC [CGRLDVPC phage] | binds |

| Binder | binding |
| --- | --- |
| CTARSDRRC | binds |
| CRYRGDLPC | binds |
| CRGDNSAC [CRGDNSAC phage] | binds |
| CKGDMPRC [CKGDMPRC phage] | binds |
| CSARGDWPC | binds |
| CPRGDWPC [CPRGDWPC phage] | binds |
| CYARGDYPC | binds |
| CRRMDMPDC | binds |
| CRTRDSPC [CRTRDSPC phage] | binds |
| CRGDTRSC [CRGDTRSC phage] | binds |
| CHIRGDFPC | binds |
| CWVRSDLGC | binds |
| CRHDSPRC [CRHDSPRC phage] | binds |
| CRADVPLC [CRADVPLC phage] | binds |
| CRGDRALC [CRGDRALC phage] | binds |
| CMRTDGRC [CMRTDGRC phage] | binds |
| CVRGDRMC [CVRGDRMC phage] | binds |
